Some results were stated once for a whole list of compounds, not compound by compound.
Tested on: mice
Assay: Acute toxicity after single intravenous administration in mice (exploratory)
Assay type: in vivo
Conditions: injection rate 2 ml/min, observation period 7 days
Procedure: After intravenous administration of the substances of Examples 2c), 21 c) and 22 c) in mice (n=3; injection rate: 2 ml/min), the acute systemic tolerability (LD50) was determined in an exploratory manner. In each case, a number of doses were investigated using an observation period of 7 days. The average acute toxicities to be expected were 2.5 mmol of Gd/kg of body weight for the substance from Example 2c) and >10.0 mmol of Gd/kg of body weight for the substances from Examples 21c) and 22 c).

| Substance | acute systemic tolerability (LD50) |
| --- | --- |
| 1,4,7-Tris(carboxylatomethyl)-10-[(3-aza-4-oxo-5-methyl-5-yl)acid N-(1H,1H,2H,2H,4H,4H,-3,6,9,12-tetraoxaperfluorohexadecyl)-N-{2-[2-(2-methoxyethoxy)ethoxy]-ethyl}amide]1,4,7,10-tetraazacyclododecane, Gd complex [Example 22c] | > 10.0 mmol of Gd/kg of body weight |
| 1,4,7-Tris(carboxylatomethyl)-10-{(3-aza-4-oxo-5-methyl-5-yl)-acid-N-(1H,1H,2H,2H,4H,4H,-3,6,9,12-tetraoxaperfluorohexadecyl)-N-[2-(2-methoxyethoxy)ethyl]amide}-1,4,7,10-tetraazacyclododecane, Gd complex [Example 21c] | > 10.0 mmol of Gd/kg of body weight |
